Experimental data: PubChem BioAssay AID1159578 (Peter MacCallum Cancer Centre, 2015)
In all, the deposit lists about 18,000 reagents; below is a random part of them. About 1,030 of them (5.7%) count as active. 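Inactive calls also include pools with fewer than 3300 nuclei, whose migration was not assessed.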 Raw values are not corrected between plates.

Aim: 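Knock-downs that alter how fast lymphatic endothelial cells migrate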 (primary screen)
System: human lymphatic endothelial cells
Knock-down reagent: siRNA pool against human genes, 40 nM
Timing: 48 h after transfection
Measured: 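High-content imaging of dye-stained cells in a scratch assay measures filled wound area and nuclei per well; duplicate means given as ratio to mock and robust z-score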
Direction: migration robust z-score: higher = faster migration into the scratch; migration relative to mock: higher = more scratch area covered than mock; nuclei per well: higher = more cells in the well
Call rule: 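Migration changed when robust z exceeds 2 or falls below -2 and mean nuclei number is at least 3300; otherwise not called changed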
Meaning of the calls: active = migration changed; inactive = no migration change, or too few cells

gene,migration robust z-score,migration class with cell-count check,migration relative to mock,"nuclei per well, duplicate mean",call
CABP5,-0.88,migration z between -2 and 2; enough cells,0.66,5038,inactive
PDCD1LG2,-0.12,migration z between -2 and 2; enough cells,0.86,5743,inactive
SLC29A1,-0.1,migration z between -2 and 2; enough cells,0.78,4792,inactive
SMDT1,-1.32,migration z between -2 and 2; enough cells,0.55,6316,inactive
SRSF1,-3.48,migration z below -2; enough cells,-0.01,3383,active
FYCO1,-0.26,migration z between -2 and 2; enough cells,0.82,4660,inactive
SYNRG,-0.26,migration z between -2 and 2; enough cells,0.82,5991,inactive
TBCE,1,migration z between -2 and 2; enough cells,1.15,6902,inactive
COL16A1,-0.1,migration z between -2 and 2; enough cells,0.86,5475,inactive
IFITM1,0.74,migration z between -2 and 2; enough cells,1.08,5832,inactive
LGALS2,-1.09,migration z between -2 and 2; enough cells,0.6,5702,inactive
THOC3,-0.11,migration z between -2 and 2; enough cells,0.86,5124,inactive
RERE,-0.62,migration z between -2 and 2; enough cells,0.68,4736,inactive
LGALS3BP,1.01,migration z between -2 and 2; enough cells,1,3924,inactive
H2BC1,1.48,migration z between -2 and 2; enough cells,1.27,6876,inactive
SLC52A3,1.09,migration z between -2 and 2; enough cells,1.17,5636,inactive
RHBG,-0.72,under 3300 nuclei; migration not judged,0.7,3264,inactive
CCDC124,1.3,migration z between -2 and 2; enough cells,1.22,5936,inactive
DLST,0.39,migration z between -2 and 2; enough cells,0.88,6306,inactive
SLX1B,-0.19,migration z between -2 and 2; enough cells,0.84,5300,inactive
RGS22,-0.98,migration z between -2 and 2; enough cells,0.62,4104,inactive
CIMIP7,0.78,migration z between -2 and 2; enough cells,1.09,6556,inactive
NCAPD2,-0.55,migration z between -2 and 2; enough cells,0.74,6257,inactive
MED22,-0.84,migration z between -2 and 2; enough cells,0.66,4686,inactive
RBM25,0.87,migration z between -2 and 2; enough cells,1.11,6382,inactive
BAGE4,0.42,migration z between -2 and 2; enough cells,0.99,5800,inactive
ETF1,-0.88,migration z between -2 and 2; enough cells,0.64,6148,inactive
NEUROD4,0.71,migration z between -2 and 2; enough cells,1.07,7224,inactive
RND1,-0.6,migration z between -2 and 2; enough cells,0.69,7412,inactive
COX7A2L,1.09,migration z between -2 and 2; enough cells,1.02,5488,inactive
SLC39A11,-0.68,migration z between -2 and 2; enough cells,0.7,4884,inactive
CREBZF,-3.45,under 3300 nuclei; migration not judged,0.14,3264,inactive
SLC25A19,-0.7,migration z between -2 and 2; enough cells,0.67,5457,inactive
PKP1,0.18,migration z between -2 and 2; enough cells,0.93,5206,inactive
APCS,0.16,migration z between -2 and 2; enough cells,0.92,5970,inactive
TMEM214,-0.52,migration z between -2 and 2; enough cells,0.75,6004,inactive
NLN,-1.53,migration z between -2 and 2; enough cells,0.51,4796,inactive
PGCKA1,1.21,migration z between -2 and 2; enough cells,1.2,5548,inactive
PRKN,-0.76,migration z between -2 and 2; enough cells,0.66,5169,inactive
MTCP1,0.89,migration z between -2 and 2; enough cells,1.12,7500,inactive
SLF2,0.62,migration z between -2 and 2; enough cells,1.05,5426,inactive
WNT10B,-0.03,migration z between -2 and 2; enough cells,0.88,6568,inactive
BAHCC1,-0.02,migration z between -2 and 2; enough cells,0.88,6138,inactive
FANCF,-0.6,migration z between -2 and 2; enough cells,0.73,7247,inactive
SLC1A2,0.16,under 3300 nuclei; migration not judged,0.84,3066,inactive
FGF7,-0.68,migration z between -2 and 2; enough cells,0.68,6060,inactive
TOM1L1,-0.12,migration z between -2 and 2; enough cells,0.85,5548,inactive
NUCB1,-2.27,migration z below -2; enough cells,0.3,4702,active
CCM2,0.46,migration z between -2 and 2; enough cells,1,6162,inactive
CDHR5,-2.11,migration z below -2; enough cells,0.34,5556,active
ERGIC2,2.32,migration z above 2; enough cells,1.48,5747,active
SPATA6L,-0.7,migration z between -2 and 2; enough cells,0.71,4538,inactive
EBNA1BP2,-0.6,migration z between -2 and 2; enough cells,0.73,4374,inactive
KBTBD2,0.08,migration z between -2 and 2; enough cells,0.9,6308,inactive
TMCC2,0.87,migration z between -2 and 2; enough cells,1.11,6389,inactive
UNK,0.83,migration z between -2 and 2; enough cells,0.96,6342,inactive
OR1J1,-1.24,migration z between -2 and 2; enough cells,0.56,5800,inactive
PDE1B,0.2,migration z between -2 and 2; enough cells,0.84,6386,inactive
TMEM207,-1.94,migration z between -2 and 2; enough cells,0.38,3834,inactive
KCNQ5,-0.05,migration z between -2 and 2; enough cells,0.8,5717,inactive
PLBD1,-0.74,migration z between -2 and 2; enough cells,0.69,4494,inactive
NXNL1,-0.78,migration z between -2 and 2; enough cells,0.68,8386,inactive
MRAS,0.26,migration z between -2 and 2; enough cells,0.86,6225,inactive
INPPL1,-0.34,migration z between -2 and 2; enough cells,0.74,5756,inactive
CRTAP,0.66,migration z between -2 and 2; enough cells,1.06,5514,inactive
OR2G2,-0.57,migration z between -2 and 2; enough cells,0.74,5556,inactive
COA8,0.37,migration z between -2 and 2; enough cells,0.98,6116,inactive
MEX3D,-0.7,migration z between -2 and 2; enough cells,0.67,5176,inactive
PSD4,0.3,migration z between -2 and 2; enough cells,0.97,7382,inactive
DLG5,-1.38,migration z between -2 and 2; enough cells,0.54,5488,inactive
PSMD11,-0.22,migration z between -2 and 2; enough cells,0.82,6616,inactive
CD1E,-2.16,migration z below -2; enough cells,0.32,4490,active
DSC1,1.24,migration z between -2 and 2; enough cells,1.21,6634,inactive

Laid out differently: 9 of the entries above
| gene | migration robust z-score | migration class with cell-count check | migration relative to mock | nuclei per well, duplicate mean | call |
| --- | --- | --- | --- | --- | --- |
| ETF1 | -0.88 | migration z between -2 and 2; enough cells | 0.64 | 6148 | inactive |
| NEUROD4 | 0.71 | migration z between -2 and 2; enough cells | 1.07 | 7224 | inactive |
| RND1 | -0.6 | migration z between -2 and 2; enough cells | 0.69 | 7412 | inactive |
| COX7A2L | 1.09 | migration z between -2 and 2; enough cells | 1.02 | 5488 | inactive |
| SLC39A11 | -0.68 | migration z between -2 and 2; enough cells | 0.7 | 4884 | inactive |
| CREBZF | -3.45 | under 3300 nuclei; migration not judged | 0.14 | 3264 | inactive |
| SLC25A19 | -0.7 | migration z between -2 and 2; enough cells | 0.67 | 5457 | inactive |
| PKP1 | 0.18 | migration z between -2 and 2; enough cells | 0.93 | 5206 | inactive |
| APCS | 0.16 | migration z between -2 and 2; enough cells | 0.92 | 5970 | inactive |
